In the supplement of paper PMC12067093, “Discovery and optimisation of a covalent ligand for TRIM25 and its application to targeted protein ubiquitination” (Chemical Science, 2025):
The other results are listed elsewhere or left out.

Sequences of proteins named here, by UniProt entry; tags and fusion partners are left off. A change or cut given only in a name is not applied to a line headed by its entry.
UniProt Q9Y6B6: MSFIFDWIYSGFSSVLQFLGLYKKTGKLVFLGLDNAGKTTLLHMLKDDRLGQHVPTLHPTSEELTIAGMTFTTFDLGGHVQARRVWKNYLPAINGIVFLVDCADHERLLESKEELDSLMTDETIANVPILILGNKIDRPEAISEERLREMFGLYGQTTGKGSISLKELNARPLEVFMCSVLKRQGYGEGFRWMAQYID
UniProt P21912: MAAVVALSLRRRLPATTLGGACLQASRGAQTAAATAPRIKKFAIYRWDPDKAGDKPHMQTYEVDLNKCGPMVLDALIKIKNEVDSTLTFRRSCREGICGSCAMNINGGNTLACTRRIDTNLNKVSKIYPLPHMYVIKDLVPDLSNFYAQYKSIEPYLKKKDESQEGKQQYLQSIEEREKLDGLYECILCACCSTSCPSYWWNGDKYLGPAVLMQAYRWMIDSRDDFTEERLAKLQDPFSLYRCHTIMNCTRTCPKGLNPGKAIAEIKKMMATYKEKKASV
UniProt Q15436: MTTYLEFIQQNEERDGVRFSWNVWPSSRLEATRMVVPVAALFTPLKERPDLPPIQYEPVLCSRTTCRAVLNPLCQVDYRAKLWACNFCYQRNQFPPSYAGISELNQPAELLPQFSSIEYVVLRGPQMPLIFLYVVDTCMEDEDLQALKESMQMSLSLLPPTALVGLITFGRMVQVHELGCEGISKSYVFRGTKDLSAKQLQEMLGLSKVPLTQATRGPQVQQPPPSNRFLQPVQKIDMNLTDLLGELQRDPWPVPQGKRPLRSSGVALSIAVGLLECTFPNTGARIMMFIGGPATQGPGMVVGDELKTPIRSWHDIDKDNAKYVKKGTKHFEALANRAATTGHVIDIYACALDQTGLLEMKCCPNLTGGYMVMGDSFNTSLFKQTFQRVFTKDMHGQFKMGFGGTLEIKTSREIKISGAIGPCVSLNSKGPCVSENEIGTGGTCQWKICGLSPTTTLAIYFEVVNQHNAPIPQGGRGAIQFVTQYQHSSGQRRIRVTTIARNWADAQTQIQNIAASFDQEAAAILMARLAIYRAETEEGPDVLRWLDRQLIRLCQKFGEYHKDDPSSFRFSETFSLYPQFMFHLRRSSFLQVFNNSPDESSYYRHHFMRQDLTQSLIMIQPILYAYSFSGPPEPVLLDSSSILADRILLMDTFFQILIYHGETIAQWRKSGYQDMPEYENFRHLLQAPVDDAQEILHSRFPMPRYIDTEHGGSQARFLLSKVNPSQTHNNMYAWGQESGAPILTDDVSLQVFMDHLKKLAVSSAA
UniProt Q9Y512: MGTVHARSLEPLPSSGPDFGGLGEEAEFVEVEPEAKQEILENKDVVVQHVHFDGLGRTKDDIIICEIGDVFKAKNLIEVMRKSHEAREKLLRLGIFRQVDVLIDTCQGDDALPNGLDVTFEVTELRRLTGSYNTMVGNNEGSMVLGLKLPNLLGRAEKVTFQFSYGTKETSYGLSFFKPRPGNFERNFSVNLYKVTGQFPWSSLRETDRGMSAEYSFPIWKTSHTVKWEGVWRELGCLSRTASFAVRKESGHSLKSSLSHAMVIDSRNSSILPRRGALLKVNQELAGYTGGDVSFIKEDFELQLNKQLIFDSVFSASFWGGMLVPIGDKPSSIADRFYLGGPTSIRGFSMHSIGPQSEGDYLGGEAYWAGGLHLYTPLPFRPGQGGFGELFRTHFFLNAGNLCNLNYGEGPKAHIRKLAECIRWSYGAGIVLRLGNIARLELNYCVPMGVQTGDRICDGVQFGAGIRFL
UniProt O95487: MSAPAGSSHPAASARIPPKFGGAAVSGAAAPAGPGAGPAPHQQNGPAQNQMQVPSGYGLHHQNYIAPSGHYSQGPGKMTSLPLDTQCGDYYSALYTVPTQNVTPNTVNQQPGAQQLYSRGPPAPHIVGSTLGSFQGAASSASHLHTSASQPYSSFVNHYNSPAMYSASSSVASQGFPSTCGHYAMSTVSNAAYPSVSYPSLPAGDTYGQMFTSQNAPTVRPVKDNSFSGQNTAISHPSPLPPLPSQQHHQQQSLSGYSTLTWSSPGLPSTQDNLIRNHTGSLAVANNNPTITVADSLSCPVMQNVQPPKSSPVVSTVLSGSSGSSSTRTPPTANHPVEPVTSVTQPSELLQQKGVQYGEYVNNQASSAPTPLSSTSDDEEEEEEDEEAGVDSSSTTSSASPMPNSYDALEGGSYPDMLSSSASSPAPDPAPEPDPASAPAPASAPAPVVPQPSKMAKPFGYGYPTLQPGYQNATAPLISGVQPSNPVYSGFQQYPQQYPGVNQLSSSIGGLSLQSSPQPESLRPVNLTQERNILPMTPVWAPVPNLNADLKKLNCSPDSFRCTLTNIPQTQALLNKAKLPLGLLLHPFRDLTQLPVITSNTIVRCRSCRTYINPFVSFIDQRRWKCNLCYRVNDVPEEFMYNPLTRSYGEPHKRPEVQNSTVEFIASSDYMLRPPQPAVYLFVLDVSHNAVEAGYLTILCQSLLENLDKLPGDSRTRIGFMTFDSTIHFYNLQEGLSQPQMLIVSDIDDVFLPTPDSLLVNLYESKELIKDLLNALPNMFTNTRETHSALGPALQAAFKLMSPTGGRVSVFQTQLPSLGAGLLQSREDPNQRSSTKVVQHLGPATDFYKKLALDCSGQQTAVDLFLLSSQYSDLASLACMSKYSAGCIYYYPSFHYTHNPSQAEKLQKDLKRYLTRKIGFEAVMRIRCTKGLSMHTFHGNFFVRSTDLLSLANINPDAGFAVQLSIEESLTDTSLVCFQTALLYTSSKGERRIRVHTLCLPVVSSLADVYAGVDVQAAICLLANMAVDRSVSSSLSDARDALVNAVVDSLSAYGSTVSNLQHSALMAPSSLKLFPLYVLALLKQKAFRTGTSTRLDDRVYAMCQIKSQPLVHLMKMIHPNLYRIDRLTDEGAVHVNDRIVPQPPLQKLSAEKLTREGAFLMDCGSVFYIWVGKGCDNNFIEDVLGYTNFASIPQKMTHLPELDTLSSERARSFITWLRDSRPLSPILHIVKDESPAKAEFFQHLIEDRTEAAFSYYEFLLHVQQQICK
UniProt O94979: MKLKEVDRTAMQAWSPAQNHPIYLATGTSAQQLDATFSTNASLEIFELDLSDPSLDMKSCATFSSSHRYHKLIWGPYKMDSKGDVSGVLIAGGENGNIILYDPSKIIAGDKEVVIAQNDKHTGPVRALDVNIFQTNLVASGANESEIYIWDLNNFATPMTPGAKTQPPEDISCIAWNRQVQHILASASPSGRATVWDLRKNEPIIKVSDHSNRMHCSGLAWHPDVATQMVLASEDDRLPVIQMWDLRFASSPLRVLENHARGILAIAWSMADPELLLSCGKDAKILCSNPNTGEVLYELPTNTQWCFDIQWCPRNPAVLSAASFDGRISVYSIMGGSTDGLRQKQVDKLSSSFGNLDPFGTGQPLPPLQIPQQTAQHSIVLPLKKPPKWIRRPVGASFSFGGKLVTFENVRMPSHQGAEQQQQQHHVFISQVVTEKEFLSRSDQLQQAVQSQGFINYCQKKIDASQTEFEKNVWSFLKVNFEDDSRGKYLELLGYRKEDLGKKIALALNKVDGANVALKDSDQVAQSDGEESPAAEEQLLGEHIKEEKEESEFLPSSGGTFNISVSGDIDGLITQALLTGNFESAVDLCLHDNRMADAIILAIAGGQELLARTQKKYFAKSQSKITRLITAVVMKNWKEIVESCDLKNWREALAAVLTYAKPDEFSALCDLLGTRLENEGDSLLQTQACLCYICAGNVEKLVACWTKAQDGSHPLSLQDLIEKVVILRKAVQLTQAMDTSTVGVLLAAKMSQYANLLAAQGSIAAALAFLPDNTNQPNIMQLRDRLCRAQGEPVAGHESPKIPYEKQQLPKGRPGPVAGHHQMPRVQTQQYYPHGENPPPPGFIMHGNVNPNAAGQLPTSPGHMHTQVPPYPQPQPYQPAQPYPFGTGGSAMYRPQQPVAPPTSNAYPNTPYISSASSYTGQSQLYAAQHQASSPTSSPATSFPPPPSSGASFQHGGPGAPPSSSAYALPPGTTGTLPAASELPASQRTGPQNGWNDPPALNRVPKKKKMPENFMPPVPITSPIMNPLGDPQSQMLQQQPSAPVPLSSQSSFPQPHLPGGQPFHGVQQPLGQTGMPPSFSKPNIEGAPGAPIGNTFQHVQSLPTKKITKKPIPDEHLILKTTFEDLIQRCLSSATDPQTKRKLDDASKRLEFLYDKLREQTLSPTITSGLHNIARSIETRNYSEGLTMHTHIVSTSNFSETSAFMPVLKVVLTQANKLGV
UniProt P61619, whole entry, looked up: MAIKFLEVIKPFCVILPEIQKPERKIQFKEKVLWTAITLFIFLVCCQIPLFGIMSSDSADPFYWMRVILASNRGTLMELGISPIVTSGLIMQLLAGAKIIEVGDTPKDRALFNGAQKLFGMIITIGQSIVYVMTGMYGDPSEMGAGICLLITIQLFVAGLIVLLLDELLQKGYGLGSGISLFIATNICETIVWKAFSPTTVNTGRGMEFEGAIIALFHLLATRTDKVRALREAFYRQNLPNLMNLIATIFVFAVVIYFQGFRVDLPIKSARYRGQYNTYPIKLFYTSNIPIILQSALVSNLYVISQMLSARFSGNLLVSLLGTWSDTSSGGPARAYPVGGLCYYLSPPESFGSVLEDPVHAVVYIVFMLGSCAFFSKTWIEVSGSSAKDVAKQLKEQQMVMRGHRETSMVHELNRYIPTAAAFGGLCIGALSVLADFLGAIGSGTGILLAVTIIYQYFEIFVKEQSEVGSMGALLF
UniProt Q99442: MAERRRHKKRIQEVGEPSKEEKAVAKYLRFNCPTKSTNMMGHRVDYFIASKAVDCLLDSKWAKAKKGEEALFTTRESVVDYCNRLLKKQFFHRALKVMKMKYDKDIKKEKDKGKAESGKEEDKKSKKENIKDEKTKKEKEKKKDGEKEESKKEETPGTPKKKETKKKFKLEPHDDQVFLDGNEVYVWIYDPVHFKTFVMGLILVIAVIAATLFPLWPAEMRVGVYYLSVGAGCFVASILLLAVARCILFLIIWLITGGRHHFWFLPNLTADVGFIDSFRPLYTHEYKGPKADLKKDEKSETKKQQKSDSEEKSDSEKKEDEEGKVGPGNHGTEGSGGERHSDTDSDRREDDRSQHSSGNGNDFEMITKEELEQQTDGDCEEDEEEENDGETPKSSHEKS
UniProt Q15437: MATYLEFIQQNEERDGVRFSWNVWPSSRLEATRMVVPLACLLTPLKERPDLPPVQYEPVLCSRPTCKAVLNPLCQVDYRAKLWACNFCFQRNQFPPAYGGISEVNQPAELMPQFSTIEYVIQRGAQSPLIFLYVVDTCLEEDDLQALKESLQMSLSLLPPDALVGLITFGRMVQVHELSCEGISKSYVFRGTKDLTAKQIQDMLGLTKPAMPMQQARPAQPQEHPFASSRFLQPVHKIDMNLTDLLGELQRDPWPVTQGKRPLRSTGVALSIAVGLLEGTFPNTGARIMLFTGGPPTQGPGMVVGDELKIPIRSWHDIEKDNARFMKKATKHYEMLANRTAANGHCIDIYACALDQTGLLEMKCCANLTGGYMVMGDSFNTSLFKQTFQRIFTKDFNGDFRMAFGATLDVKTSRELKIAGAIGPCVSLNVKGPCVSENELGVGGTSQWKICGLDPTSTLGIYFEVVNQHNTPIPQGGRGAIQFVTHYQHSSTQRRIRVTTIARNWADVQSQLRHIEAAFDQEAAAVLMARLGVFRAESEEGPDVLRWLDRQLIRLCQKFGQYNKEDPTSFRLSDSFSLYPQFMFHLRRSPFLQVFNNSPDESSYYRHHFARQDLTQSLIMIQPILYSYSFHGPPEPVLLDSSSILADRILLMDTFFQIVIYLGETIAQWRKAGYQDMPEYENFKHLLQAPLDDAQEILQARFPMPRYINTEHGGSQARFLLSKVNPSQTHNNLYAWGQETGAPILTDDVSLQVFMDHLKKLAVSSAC
UniProt Q9Y3A5: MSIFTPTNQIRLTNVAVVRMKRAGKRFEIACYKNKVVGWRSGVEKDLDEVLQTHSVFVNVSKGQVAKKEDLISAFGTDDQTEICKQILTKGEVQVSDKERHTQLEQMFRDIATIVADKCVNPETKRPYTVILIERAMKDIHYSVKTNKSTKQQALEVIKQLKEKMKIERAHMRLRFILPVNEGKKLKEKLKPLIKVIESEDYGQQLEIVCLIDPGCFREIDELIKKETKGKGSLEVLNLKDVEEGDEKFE
UniProt Q99611, whole entry: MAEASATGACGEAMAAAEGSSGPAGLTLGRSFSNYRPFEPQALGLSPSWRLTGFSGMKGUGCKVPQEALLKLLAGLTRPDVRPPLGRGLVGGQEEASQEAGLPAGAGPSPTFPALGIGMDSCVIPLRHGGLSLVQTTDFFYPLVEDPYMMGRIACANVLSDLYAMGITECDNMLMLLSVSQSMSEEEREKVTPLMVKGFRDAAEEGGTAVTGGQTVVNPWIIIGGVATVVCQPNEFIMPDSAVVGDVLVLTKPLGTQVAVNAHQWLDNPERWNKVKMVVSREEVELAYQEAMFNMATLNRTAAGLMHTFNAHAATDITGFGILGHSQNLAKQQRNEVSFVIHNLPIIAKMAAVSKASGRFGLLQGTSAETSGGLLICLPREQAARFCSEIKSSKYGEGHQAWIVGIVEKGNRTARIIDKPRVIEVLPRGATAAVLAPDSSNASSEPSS

Compound: Cc1cc(ccc1-c1ccccc1)C(=O)N1CCCN(CC1)C(=O)CCl [compound 10]
Experiment: probe-labelled cysteine peptide fold change vs DMSO (competition) (log2 fold change); higher = less target engagement (more negative = stronger competition)
Conditions: THP-1, incubation time: 4 h
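Also: competitive profiling in live THP-1 cells: cysteine peptides tagged with an iodoacetamide desthiobiotin (IA-DTB) probe, intensity after compound treatment relative to DMSO-treated cells.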

Row | Target | probe-labelled cysteine peptide fold change (10 µM) | probe-labelled cysteine peptide fold change (50 µM)
1 | SEC13_P55735_234_DVAWAPSIGLPTSTIASCSQDGR (UniProt P55735) | -0.0557 | 0.00507
2 | SEMA4A_Q9H3S1_514_DPHCAWDPESR (UniProt Q9H3S1) | 0.0945 | -0.196
3 | SAR1B_Q9Y6B6_102_NYLPAINGIVFLVDCADHER (UniProt Q9Y6B6) | 0.248 | 0.291
4 | SDHB_P21912_243+249_CHTIMNCTR (UniProt P21912) | -0.163 | -0.496
5 | SEC13_P55735_153_KINNAHTIGCNAVSWAPAVVPGSLIDHPSGQKPNYIK (UniProt P55735) | 0.0479 | -0.452
6 | SEC13_P55735_153_INNAHTIGCNAVSWAPAVVPGSLIDHPSGQK (UniProt P55735) | 0.205 | 0.559
7 | SEC23A_Q15436_61_ERPDLPPIQYEPVLCSR (UniProt Q15436) | -0.176 | -0.186
8 | SAMM50_Q9Y512_65_TKDDIIICEIGDVFK (UniProt Q9Y512) | 0.0115 | 0.203
9 | SEC24B_O95487_562_CTLTNIPQTQALLNK (UniProt O95487) | 0.254 | 0.239
10 | SEC31A_O94979_644_EIVESCDLK (UniProt O94979) | -0.1 | 0.616
11 | SEMA4D_Q92854_512_HGTCEDCVLAR (UniProt Q92854) | -0.113 | -0.827
12 | SATB1_Q01826_78_GTMLPVFCVVEHYENAIEYDCKEEHAEFVLVRK (UniProt Q01826) | -0.162 | -0.151
13 | SEC61A1_P61619_13_FLEVIKPFCVILPEIQKPERK (UniProt P61619) | 0.0585 | -0.17
14 | SEC62_Q99442_55_AVDCLLDSK (UniProt Q99442) | -0.0244 | -0.177
15 | SBNO1_A3KN83_605_YLCIASK (UniProt A3KN83) | -0.77 | 0.41
16 | SDF2L1_Q9HCN8_38_TGAELVTCGSVLK (UniProt Q9HCN8) | -0.141 | 0.0695
17 | SEC14L1_Q92503_614_DYSMVESPLICK (UniProt Q92503) | -0.418 | -0.526
18 | SCRIB_Q14160_22_HCSLQAVPEEIYR (UniProt Q14160) | 0.0988 | -0.184
19 | SEC22A_Q96IW7_111_TNTAVRPYCFIEFDNFIQR (UniProt Q96IW7) | -0.0625 | -0.0958
20 | SEC13_P55735_245_VFIWTCDDASSNTWSPK (UniProt P55735) | 0.0115 | 0.0722

Given tab-delimited: entries from further up
Row	Target	probe-labelled cysteine peptide fold change (10 µM)	probe-labelled cysteine peptide fold change (50 µM)
3	SAR1B_Q9Y6B6_102_NYLPAINGIVFLVDCADHER (UniProt Q9Y6B6)	0.248	0.291
4	SDHB_P21912_243+249_CHTIMNCTR (UniProt P21912)	-0.163	-0.496
5	SEC13_P55735_153_KINNAHTIGCNAVSWAPAVVPGSLIDHPSGQKPNYIK (UniProt P55735)	0.0479	-0.452
6	SEC13_P55735_153_INNAHTIGCNAVSWAPAVVPGSLIDHPSGQK (UniProt P55735)	0.205	0.559
7	SEC23A_Q15436_61_ERPDLPPIQYEPVLCSR (UniProt Q15436)	-0.176	-0.186
8	SAMM50_Q9Y512_65_TKDDIIICEIGDVFK (UniProt Q9Y512)	0.0115	0.203
9	SEC24B_O95487_562_CTLTNIPQTQALLNK (UniProt O95487)	0.254	0.239
10	SEC31A_O94979_644_EIVESCDLK (UniProt O94979)	-0.1	0.616

Further results.

Row | Target | probe-labelled cysteine peptide fold change (10 µM) | probe-labelled cysteine peptide fold change (50 µM)
21 | SBF1_O95248_839_VCTESGVTSDHLK (UniProt O95248) | 0.153 | 0.155
22 | SEC16A_O15027_1451_FSVPHVCAR (UniProt O15027) | 0.00133 | 0.128
23 | SCYL3_Q8IZE3_184_SIQSIRDPASIPPEEMSPEFTTLPECHGHAR (UniProt Q8IZE3) | -0.1 | -0.102
24 | SCAI_Q8N9R8_415_EMHCLHPGDLYPFTR (UniProt Q8N9R8) | 0.0781 | -0.407
25 | SEC24C_P53992_452_FQCCFCSCINDVPPQYFQHLDHTGK (UniProt P53992) | 0.102 | -0.096
26 | SCYL1_Q96KG9_451_CNTTVCLGK (UniProt Q96KG9) | -0.262 | -0.242
27 | SEC23A_Q15436_423_ISGAIGPCVSLNSK (UniProt Q15436) | 0.0193 | 0.0103
28 | SEL1L_Q9UBV2_141_EYDECTSDGREDGR (UniProt Q9UBV2) | 0.0618 | 0.0245
29 | SEPHS1_P49903_317_ACGNMFGLMHGTCPETSGGLLICLPR (UniProt P49903) | -0.00273 | -0.259
30 | SEPT2_Q15019_148_VHCCFYFISPFGHGLKPLDVAFMK (UniProt Q15019) | -0.00578 | 0.145
31 | SEC23B_Q15437_61_ERPDLPPVQYEPVLCSRPTCK (UniProt Q15437) | -0.125 | -0.278
32 | SCCPDH_Q8NBX0_77_LGRPTLSSEVGIIICDIANPASLDEMAK (UniProt Q8NBX0) | 0.218 | 0.131
33 | SBDS_Q9Y3A5_210_VIESEDYGQQLEIVCLIDPGCFR (UniProt Q9Y3A5) | 0.00796 | -0.472
34 | SELENOF_O60613_73_GCCQEEAQFETK (UniProt O60613) | -0.0984 | 0.258
35 | SCAF8_Q9UPN6_475_TLSVCSTTLWVGQVDKK (UniProt Q9UPN6) | 0.0477 | -0.102
36 | SAR1A_Q9NR31_102_NYLPAINGIVFLVDCADHSR (UniProt Q9NR31) | 0.119 | 0.185
37 | SCFD2_Q8WU76_507_ALAQVFCEESGLSPLLQK (UniProt Q8WU76) | 0.126 | 0.0573
38 | SEPHS2_Q99611_377_FGLLQGTSAETSGGLLICLPR (UniProt Q99611) | -0.237 | 0.169
39 | SATB1_Q01826_91_GTMLPVFCVVEHYENAIEYDCKEEHAEFVLVR (UniProt Q01826) | -0.0836 | -0.32
40 | SEH1L_Q96EE3_77_VTWAHPEFGQVLASCSFDR (UniProt Q96EE3) | -0.14 | 0.133
